The source of these data is patent US11299447B2, “Method for isolating a carboxylic acid from an aqueous solution” (PURAC BIOCHEM BV, priority 2011, dated 2022).

Assay type in all cases: physicochemical
The nature of series [1]: Comparison of different solvents in lactic acid extraction. Conditions: per extraction solvent; feed 29 wt % lactic acid, 15 wt. % MgCl2; 20° C.
Series [2] can be described thus: Forward/back extraction of different acids with methyl-isobutylketone. Conditions: MIBK, 20° C.
Series [3] is described as follows: Removal of solvent from acid product (forward/back extraction, then steam stripping). Conditions: for Solvent residue after stripping: after evaporating 50% (weight basis) in atmospheric packed stripping column; for Solvent residue before stripping: in aqueous product after back extraction; for 2-hydroxy butyric acid in aqueous product: per extraction solvent, feed 34 wt % acid, 15 wt % MgCl2, forward and back extraction 20° C., ratio 1:10.

Series [4] is described as follows: Extraction of different types of polycarboxylic acids. Conditions: for concentration ratio: acid concentration in product / acid concentration in feed; for [acid] aqueous fraction after back extraction: feed per Table 12.1, 15 wt. % MgCl2. The text has this:
These tables also give the concentration ratio, which is the ratio between the acid concentration in the product and the acid concentration in the feed.

A short description of series [5]: Pilot extraction of lactic acid in Pulsed Disc and Donut Column. Conditions: PDDC pilot column, MIBK, counter-current; forward 60° C., back 20° C.; feed 29 wt %.

Turning to `CCCCC(C)=O` [2-hexanone], the “[lactic acid] product” value in series [1] was 35 wt. %.

Regarding `O=C(O)CCO` [3-hydroxy propionic acid], the “wt. % acid in product” value in series [2] (feed 8 wt. % acid, 5 wt. % MgCl2) stood at 4 wt. %; in series [2] (feed 27 wt. % acid, 15 wt. % MgCl2) it was 21 wt. %.

In the case of `O=C(O)CO` [glycolic acid], the “wt. % acid in product” value in series [2] (feed 15 wt. % acid, 9 wt. % MgCl2) is given as 7.5 wt. %; in series [2] (feed 23 wt. % acid, 15 wt. % MgCl2), 15 wt. %.

For `CC(=O)CC(C)C` [MIBK, methyl-isobutylketone], in series [3], the “Solvent residue after stripping” value worked out at 0.6 mg/kg, the “Solvent residue before stripping” value amounted to 24000 mg/kg and the “2-hydroxy butyric acid in aqueous product” value amounted to 22 wt. %. In addition, the “[lactic acid] product” value in series [1] is 35 wt. %.

Take `O=C(O)/C=C/C(=O)O` [Fumaric acid, fumaric acid]: in series [4], the concentration ratio worked out at 1.8 and the “[acid] aqueous fraction after back extraction” value came to 0.21 wt. %.

For the molecule `CC(O)C(=O)O` (stereo not drawn) [lactic acid], in series [5], the “concentration of lactic acid in aqueous phase after back extraction” value amounted to 34.5 wt %.

For `CC(=O)c1ccccc1` [acetophenone], in series [1], the “[lactic acid] product” value is reported as 34 wt. %.

Take `CCCCCCC(C)=O` [2-octanone]: in series [1], the “[lactic acid] product” value is 30 wt. %.

Turning to `CCCC(C)=O` [2-pentanone], the “[lactic acid] product” value in series [1] amounted to 30 wt. %.

As for `CCCCCCCCN(CCCCCCCC)CCCCCCCC` [Trioctylamine, reference compound], in series [3], the “Solvent residue after stripping” value is reported as 20 mg/kg, the “Solvent residue before stripping” value is recorded as 9 mg/kg and the “2-hydroxy butyric acid in aqueous product” value was found to be 15 wt. %.

`C=C(CC(=O)O)C(=O)O` [Itaconic acid, itaconic acid]: in series [4], the concentration ratio is recorded as 1.9 and the “[acid] aqueous fraction after back extraction” value was found to be 2.8 wt. %.

As for `CCC(O)C(=O)O` (stereo not drawn) [2-hydroxy butyric acid], the “wt. % acid in product” value is 15 wt. % in series [2] (feed 13 wt. % acid, 7 wt. % MgCl2) and 21 wt. % in series [2] (feed 34 wt. % acid, 15 wt. % MgCl2).

`O=C1CCCCC1` [cyclo-hexanone]: in series [1], the “[lactic acid] product” value is reported as 32 wt. %.

As for `CCCCCC(C)=O` [2-heptanone], the “[lactic acid] product” value in series [1] is recorded as 34 wt. %.
